Laboratory results from patent US10570104B2, “Metabolically programmed metal chelators and uses thereof” (University of Florida Research Foundation, Incorporated, priority 2015, dated 2020).
Several values for one entry are separate records, joined by “and”; a condition that tells them apart may be missing. Equal values may be shown once. Read-outs that look alike come from different tables or passages of the source.

Columns and labels:
[1] = 300 μmol/kg, monosodium salt
[2] = Chelator-induced iron clearance (ICE) in iron-overloaded Cebus apella primates; assay type: in vivo, Cebus apella monkeys; details: for Performance Ratio (PR): mean ICEprimates/ICErodents; for relative percentages of the iron excreted in the feces and urine: monosodium salt; for subcutaneous ICE vs oral ICE: primates
Experimental: Iron Loading of Cebus apella Monkeys. The monkeys (3.5-6.5 kg) were iron overloaded with intravenous iron dextran as specified in earlier publications to provide about 500 mg of iron per kg of body weight; the serum transferrin iron saturation rose to between 70 and 80%.^38,40 At least 20 half-lives, 60 days, elapsed before any of the animals were used in experiments evaluating iron-chelating agents.
Primate Fecal and Urine Samples. Fecal and urine samples were collected at 24 hours intervals and processed as described previously^38,40,74 Briefly, the collections began 4 days prior to the administration of the test drug and continued for an additional 5 days after the drug was given. Iron concentrations were determined by flame absorption spectroscopy as presented in other publications.^38′^40
Drug Preparation and Administration.
Calculation of Chelator Iron Clearing Efficiency (ICE).

[3] = cited from earlier work
[4] = cited from earlier work; remark: listed apart in the source
[5] = po, 300 μmol/kg, 48 hour sample collection period, historical

C[C@]1(C(=O)O)CSC(c2ccc(OCCOCC(=O)O)cc2O)=N1 [Compound 9, (S)-4,5-dihydro-2-[2-hydroxy-4-(4-carboxy-3-oxabutyloxy)phenyl]-4-methyl-4-thiazolecarboxylic acid]
relative percentages of the iron excreted in the bile and urine [bile/urine] ([1]; po): 100/0
relative percentages of the iron excreted in the bile and urine [bile/urine] ([1]; sc): 99/1
Performance Ratio (PR) ([2]; po): 0.3
Performance Ratio (PR) ([2]; sc): 1.5
relative percentages of the iron excreted in the feces and urine ([2]; po, 75 μmol/kg): 51/49
subcutaneous ICE vs oral ICE ([2]; 75 μmol/kg): 10.2 times and 10 times
increase of ICE, subcutaneous vs oral ([2]; same monkeys, 75 μmol/kg): more than 10 fold
relative percentages of the iron excreted in the feces and urine ([2]; sc, 75 μmol/kg): 84/16

C[C@]1(C(=O)O)CSC(c2ccc(OCCOCCO)cc2O)=N1 [Compound 8, (S)-4,5-dihydro-2-[2-hydroxy-4-(5-hydroxy-3-oxapentyloxy)phenyl]-4-methyl-4-thiazolecarboxylic acid]
relative percentages of the iron excreted in the bile and urine [bile/urine] ([1]; po): 98/2
Performance Ratio (PR) ([2]; po): 0.6
relative percentages of the iron excreted in the feces and urine ([2]; po, 75 μmol/kg): 54/46

C[C@]1(C(=O)O)CSC(c2ccc(O)cc2O)=N1 [Compound 2, (S)-2-(2,4-dihydroxyphenyl)-4,5-dihydro-4-methyl-4-thiazolecarboxylic acid]
relative percentages of the iron excreted in the bile and urine [bile/urine] ([3]; po, 300 μmol/kg, historical): 100/0
relative percentages of the iron excreted in the feces and urine ([4]; po, 150 μmol/kg, historical): 88/12

COCCOCCOCCOc1ccc(C2=N[C@@](C)(C(=O)O)CS2)c(O)c1 [Compound 5, (S)-4,5-dihydro-2-[2-hydroxy-4-(3,6,9-trioxadecyloxy)phenyl]-4-methyl-4-thiazolecarboxylic acid]
relative percentages of the iron excreted in the bile and urine [bile/urine] ([3]; po, 300 μmol/kg, historical): 90/10
relative percentages of the iron excreted in the feces and urine ([4]; po, 150 μmol/kg, historical): 96/4

C[C@]1(C(=O)O)CSC(c2cccc(O)c2O)=N1 [Compound 3, (S)-2-(2,3-dihydroxyphenyl)-4,5-dihydro-4-methyl-4-thiazolecarboxylic acid]
relative percentages of the iron excreted in the bile and urine [bile/urine] ([3]; po, 300 μmol/kg, historical): 98/2
relative percentages of the iron excreted in the feces and urine ([4]; po, 150 μmol/kg, historical): 83/17

COCCCCCCOc1ccc(C2=N[C@@](C)(C(=O)O)CS2)c(O)c1 [Compound 10, (S)-4,5-dihydro-2-[2-hydroxy-4-(6-methoxyhexyloxy)phenyl]-4-methyl-4-thiazolecarboxylic acid]
relative percentages of the iron excreted in the bile and urine [bile/urine] ([1]; po): 99/1

C[C@]1(C(=O)O)CSC(c2ncccc2O)=N1 [Compound 1, (S)-4,5-dihydro-2-(3-hydroxy-2-pyridinyl)-4-methyl-4-thiazolecarboxylic acid]
relative percentages of the iron excreted in the bile and urine [bile/urine] ([3]; po, 150 μmol/kg): 93/7
relative percentages of the iron excreted in the feces and urine ([4]; po, 150 μmol/kg, historical): 78/22

COc1ccc(C2=N[C@@](C)(C(=O)O)CS2)c(O)c1 [Compound 4, (S)-4,5-dihydro-2-(2-hydroxy-4-methoxyphenyl)-4-methyl-4-thiazolecarboxylic acid]
relative percentages of the iron excreted in the bile and urine [bile/urine] ([3]; po, 300 μmol/kg, historical): 98/2
relative percentages of the iron excreted in the feces and urine ([4]; po, 150 μmol/kg, historical): 91/9

C[C@]1(C(=O)O)CSC(c2ccc(OCCCCCC(=O)O)cc2O)=N1 [Compound 12, (S)-4,5-dihydro-2-[2-hydroxy-4-(5-carboxypentyloxy)phenyl]-4-methyl-4-thiazolecarboxylic acid]
relative percentages of the iron excreted in the bile and urine [bile/urine] ([1]; po): 94/6
relative percentages of the iron excreted in the bile and urine [bile/urine] ([1]; sc): 96/4
Performance Ratio (PR) ([2]; po): 1.2
Performance Ratio (PR) ([2]; sc): 4.4
relative percentages of the iron excreted in the feces and urine ([2]; po, 75 μmol/kg): 82/18
relative percentages of the iron excreted in the feces and urine ([2]; sc, 75 μmol/kg): 69/31

COCCOCCOCCOc1cccc(C2=N[C@@](C)(C(=O)O)CS2)c1O [Compound 6, (S)-4,5-dihydro-2-[2-hydroxy-3-(3,6,9-trioxadecyloxy)phenyl]-4-methyl-4-thiazolecarboxylic acid]
relative percentages of the iron excreted in the bile and urine [bile/urine] [3, 5]: 95/5
relative percentages of the iron excreted in the feces and urine ([4]; po, 150 μmol/kg, historical): 95/5

COCCOCCOc1ccc(C2=N[C@@](C)(C(=O)O)CS2)c(O)c1 [Compound 7, (S)-4,5-dihydro-2-[2-hydroxy-4-(3,6-dioxaheptyloxy)phenyl]-4-methyl-4-thiazolecarboxylic acid]
relative percentages of the iron excreted in the bile and urine [bile/urine] [3, 5]: 97/3
relative percentages of the iron excreted in the feces and urine ([4]; po, 75 μmol/kg, as monosodium salt, historical): 83/17
relative percentages of the iron excreted in the feces and urine ([4]; po, 75 μmol/kg, in capsules, historical): 93/7
Performance Ratio (PR) ([2]; po, primates given capsules): 1.0
Performance Ratio (PR) ([2]; po, primates given monosodium salt): 1.1

CC(=O)N(O)CCCCCNC(=O)CCC(=O)N(O)CCCCCNC(=O)CCC(=O)N(O)CCCCCN [DFO, desferrioxamine B]
relative percentages of the iron excreted in the bile and urine [bile/urine] ([3]; sc, 150 μmol/kg): 74/26
relative percentages of the iron excreted in the feces and urine ([4]; sc, 150 μmol/kg): 45/55

C[C@]1(C(=O)O)CSC(c2ccc(OCCCCCCO)cc2O)=N1 [Compound 11, (S)-4,5-dihydro-2-[2-hydroxy-4-(6-hydroxyhexyloxy)phenyl]-4-methyl-4-thiazolecarboxylic acid]
relative percentages of the iron excreted in the bile and urine [bile/urine] ([1]; po): 96/4
Performance Ratio (PR) ([2]; po): 2.2
relative percentages of the iron excreted in the feces and urine ([2]; po, 75 μmol/kg): 90/10

C[C@]1(C(=O)O)CSC(c2ccc(OCCCC(=O)O)cc2O)=N1 [Compound 13, (S)-4,5-dihydro-2-[2-hydroxy-4-(3-carboxypropyloxy)phenyl]-4-methyl-4-thiazolecarboxylic acid]
relative percentages of the iron excreted in the bile and urine [bile/urine] ([1]; po): 89/11
relative percentages of the iron excreted in the bile and urine [bile/urine] ([1]; sc): 95/5
Performance Ratio (PR) ([2]; po): 1.5
Performance Ratio (PR) ([2]; sc): 4.2
relative percentages of the iron excreted in the feces and urine ([2]; po, 75 μmol/kg): 97/3
subcutaneous ICE vs oral ICE ([2]; 75 μmol/kg): 3.4 times
relative percentages of the iron excreted in the feces and urine ([2]; sc, 75 μmol/kg): 78/22

C[C@]1(C(=O)O)CSC(c2ccc(OCC(=O)O)cc2O)=N1 [Compound 14, (S)-4,5-dihydro-2-[2-hydroxy-4-(carboxymethoxy)phenyl]-4-methyl-4-thiazolecarboxylic acid]
relative percentages of the iron excreted in the bile and urine [bile/urine] ([1]; po): 89/11
relative percentages of the iron excreted in the bile and urine [bile/urine] ([1]; sc): 94/6
Performance Ratio (PR) ([2]; po): 1.2
Performance Ratio (PR) ([2]; sc): 2.7
relative percentages of the iron excreted in the feces and urine ([2]; po, 75 μmol/kg): 60/40
subcutaneous ICE vs oral ICE ([2]; 75 μmol/kg): 5.3 times
relative percentages of the iron excreted in the feces and urine ([2]; sc, 75 μmol/kg): 53/47
